Read-outs that look alike come from different tables or passages of the source.
How the values were obtained:
[1] = test system: Leishmania infantum MHOM/MA(BE)/67/ITMAP263 intracellular amastigotes; conditions: selectivity index vs PMM
[2] = test system: primary peritoneal mouse macrophages (PMM)
[3] = selectivity index PMM vs L. infantum

COc1ccc(C#N)cc1S(=O)(=O)N(Cc1ccc(F)cc1)Cc1ccccn1 [DNDI0003370083]
SI (vs PMM) [1]: 20

COc1ccc(C#N)cc1S(=O)(=O)N(Cc1ccccc1)Cc1ccccc1 [DNDI0003366138]
SI (vs PMM) [1]: 147

O=C(CN(Cc1ccccc1)S(=O)(=O)c1cc(F)ccc1F)c1ccc(F)cc1 [DNDI0003371157]
SI (vs PMM) [1]: 1

COc1ccc(S(C)(=O)=O)cc1S(=O)(=O)N(Cc1ccc(F)cc1)Cc1ccc(F)cc1 [DNDI0003371164]
SI (vs PMM) [1]: 50

COc1ccc(OC)c(S(=O)(=O)N(CCn2nc(C)cc2C)Cc2ccccc2)c1 [DNDI0003367308]
SI (vs PMM) [1]: 10

COCC1COc2ccc(F)cc2S(=O)(=O)N1Cc1ccccc1 (stereo not drawn) [DNDI0003369451]
SI (vs PMM) [1]: 1

COc1ccc(OC)c(S(=O)(=O)N(Cc2ccc(F)cc2)Cc2ccccn2)c1 [DNDI0003368394]
SI (vs PMM) [1]: 66

CNc1ncccc1S(=O)(=O)N(Cc1ccc(F)cc1)Cc1ccc(F)cc1 [DNDI0003371162]
SI (vs PMM) [1]: 18

COc1ccc(OC)c(S(=O)(=O)N(Cc2ccccc2)C2CCN(C(C)=O)CC2)c1 [DNDI0003366132]
SI (vs PMM) [1]: 1

COc1ccc(C(=O)O)cc1S(=O)(=O)N(Cc1ccccc1)Cc1ccccc1 [DNDI0003368287]
SI (vs PMM) [1]: 1

Cn1cccc(S(=O)(=O)N(Cc2ccc(F)cc2)Cc2ccc(F)cc2)c1=O [DNDI0003371168]
SI (vs PMM) [1]: 3

O=S(=O)(c1cc(F)ccc1F)N(CCO)Cc1ccccc1 [DNDI0003368289]
SI (vs PMM) [1]: 1

CNC(=O)c1ccc(OC)c(S(=O)(=O)N(Cc2ccccc2)Cc2ccccc2)c1 [DNDI0003368298]
SI (vs PMM) [1]: 72

O=S1(=O)c2cc(F)ccc2OC(c2ccc(F)cc2)CN1Cc1ccccc1 (stereo not drawn) [DNDI0003371160]
SI (vs PMM) [1]: 3

COc1ncccc1S(=O)(=O)N(Cc1ccc(F)cc1)Cc1ccccn1 [DNDI0003370084]
SI (vs PMM) [1]: 9

COc1ccc(OC)c(S(=O)(=O)N2CCC(c3ccccc3)CC2)c1 [DNDI0003370422]
SI (vs PMM) [1]: 1

COc1ncc(Br)cc1S(=O)(=O)N(Cc1ccc(F)cc1)Cc1ccc(F)cc1 [DNDI0003369122]
SI (vs PMM) [1]: 4

COc1ccc(C(N)=O)cc1S(=O)(=O)N(Cc1ccccc1)Cc1ccccc1 [DNDI0003366135]
SI (vs PMM) [1]: 9

CN(C)CCN(Cc1ccccc1)S(=O)(=O)c1ccc(NC(=O)CCCO)cc1 [DNDI0003368293]
SI (vs PMM) [1]: 1

COCCN(Cc1ccc(F)cc1)S(=O)(=O)c1cc(C#N)ccc1OC [DNDI0003368395]
SI (vs PMM) [1]: 7

O=S(=O)(c1cc(F)ccc1F)N(Cc1ccccc1)CC(O)c1ccc(F)cc1 (stereo not drawn) [DNDI0003371159]
SI (vs PMM) [1]: 2

CN(C)CCN(Cc1ccccc1)S(=O)(=O)c1ccccc1S(C)(=O)=O [DNDI0003367255]
SI (vs PMM) [1]: 1

COc1ccc(OC)c(S(=O)(=O)N(Cc2ccc(F)cc2)c2ccc(F)cc2)c1 [DNDI0003371170]
SI (vs PMM) [1]: 6

COc1ccc(OC)c(S(=O)(=O)N(Cc2ccc(F)cc2)Cc2nc(C)no2)c1 [DNDI0003368295]
SI (vs PMM) [1]: 8

COc1ccc(OC)c(S(=O)(=O)N(Cc2ccccc2)C2CCCNC2)c1 (stereo not drawn) [DNDI0003366131]
SI (vs PMM) [1]: 2

CN(C)CCN(Cc1ccccc1)S(=O)(=O)c1ccc(N2C(=O)CCC2=O)cc1 [DNDI0003368291]
SI (vs PMM) [1]: 1

COCCNc1ccc(S(=O)(=O)N(CCOC)Cc2ccccc2)cc1 [DNDI0003366102]
SI (vs PMM) [1]: 2

COC(=O)[C@H](CO)NS(=O)(=O)c1cc(Cl)ccc1OC [DNDI0003369004]
SI (vs PMM) [1]: 1

O=S(=O)(c1ccccc1Br)N(Cc1ccccc1)C(CO)Cc1ccccc1 (stereo not drawn) [DNDI0003369450]
SI (vs PMM) [1]: 1

COc1ccc(C#N)cc1S(=O)(=O)N(Cc1ccc(F)cc1)Cc1oc(C)nc1C [DNDI0003370421]
SI (vs PMM) [1]: 8

COc1ccc(Cl)cc1S(=O)(=O)N(Cc1ccccc1)C(Cc1ccccc1)C(N)=O (stereo not drawn) [DNDI0003370116]
SI (vs PMM) [1]: 7

COc1ccc(CN2CCCC2)cc1S(=O)(=O)N(Cc1ccc(F)cc1)Cc1ccc(F)cc1 [DNDI0003370114]
SI (vs PMM) [1]: 3

O=S1(=O)c2cc(F)ccc2OCCN1Cc1ccccc1 [DNDI0003368292]
SI (vs PMM) [1]: 1

COc1ccc(S(=O)(=O)N(Cc2ccccc2)Cc2ccccc2)cc1 [DNDI0003367309]
SI (vs PMM) [1]: 1

COc1ccc(C#N)cc1S(=O)(=O)N(Cc1ccc(F)cc1)Cc1ccc(C#N)cc1 [DNDI0003371171]
SI (vs PMM) [1]: 2

C=C(c1ccc(F)cc1)N(Cc1ccccc1)S(=O)(=O)c1cc(Cl)ccc1O [DNDI0003371156]
SI (vs PMM) [1]: 1

COc1ncccc1S(=O)(=O)N(Cc1ccc(F)cc1)Cc1ccc(F)cc1 [DNDI0003371169]
SI (vs PMM) [1]: 5

COc1ccc(N2CCN(C)CC2)cc1S(=O)(=O)N(Cc1ccc(F)cc1)Cc1ccc(F)cc1 [DNDI0003389645]
SI (vs PMM) [2, 3]: 20

COc1ccc(CNC2COC2)cc1S(=O)(=O)N(Cc1ccc(F)cc1)Cc1ccc(F)cc1 [DNDI0003389115]
SI (vs PMM) [2, 3]: 36

CCc1c(C(=O)Nc2cc(S(=O)(=O)NC)ccc2C)[nH]c(C)c1C(C)=O [Compound Z792473370]
SI (vs PMM) ([2]; PMM IC50 vs L. infantum IC50): 1

COCCN(Cc1ccccc1)S(=O)(=O)c1cc(C(=O)N2CCOCC2)ccc1OC [DNDI0003392126]
SI (vs PMM) [2, 3]: 1

COc1ccc(CN(Cc2ccc(F)cc2)S(=O)(=O)c2cc(F)ccc2OCC[N+](C)(C)CC(=O)O)cc1 [DNDI0003389931]
SI (vs PMM) [2, 3]: 1

COc1ccc(S(=O)(=O)N(Cc2cccc(F)c2)Cc2cccc(F)c2)cc1OC [Compound Z220633200]
SI (vs PMM) ([2]; PMM IC50 vs L. infantum IC50): 3

CNC(=O)c1ccc(OC)c(S(=O)(=O)N(CCOC)Cc2ccccc2)c1 [DNDI0003392128]
SI (vs PMM) [2, 3]: 2

COc1ccccc1S(=O)(=O)N(Cc1ccccc1)Cc1ccccc1 [Compound Z45508946]
SI (vs PMM) ([2]; PMM IC50 vs L. infantum IC50): 94

COc1ccc(S(C)(=O)=O)cc1S(=O)(=O)N(Cc1ccccc1)Cc1cc(C(F)(F)F)nn1C [DNDI0003578374]
SI (vs PMM) [2, 3]: 5

CCN(CC)C(=O)CN(Cc1ccccc1)S(=O)(=O)c1ccc(OC)c(OC)c1 [DNDI0003363394]
SI (vs PMM) ([2]; PMM IC50 vs L. infantum IC50): 2

CCOc1ccc(NC(=O)c2[nH]c(C)c(C(=O)OC)c2C)cc1S(=O)(=O)N1CCCC1 [Compound Z29178369]
SI (vs PMM) ([2]; PMM IC50 vs L. infantum IC50): 1

COC(=O)c1c(C)[nH]c(C(=O)Nc2cccc(S(=O)(=O)N3CCCC3)c2)c1C [Compound Z30224758]
SI (vs PMM) ([2]; PMM IC50 vs L. infantum IC50): 1

COc1ccc(S(=O)(=O)N(C)C)cc1NC(=O)C1CCCc2ccccc21 (stereo not drawn) [Compound Z300980532]
SI (vs PMM) ([2]; PMM IC50 vs L. infantum IC50): 1

O=S(=O)(NCc1cccs1)c1ccc2c(c1)CCCC2 [Compound Z45423905]
SI (vs PMM) ([2]; PMM IC50 vs L. infantum IC50): 1

CNC(=O)NC(=O)COc1ccc(S(N)(=O)=O)cc1 [Compound Z381095182]
SI (vs PMM) ([2]; PMM IC50 vs L. infantum IC50): 1

CCCCOc1cc(C)c(Cl)cc1S(=O)(=O)NCc1cccnc1 [DNDI0002558122]
SI (vs PMM) ([2]; PMM IC50 vs L. infantum IC50): 2

O=S(=O)(c1ccccn1)N(Cc1ccccc1)Cc1ccccc1 [DNDI0003389646]
SI (vs PMM) [2, 3]: 4

CS(=O)(=O)c1ccccc1S(=O)(=O)N(Cc1ccccc1)Cc1ccccc1 [DNDI0003389642]
SI (vs PMM) [2, 3]: 2

COc1ccc(C#N)cc1S(=O)(=O)N(Cc1ccc(C(F)(F)F)nc1)Cc1ccc(C(F)(F)F)nc1 [DNDI0003578377]
SI (vs PMM) [2, 3]: 2

COc1ccccc1S(=O)(=O)N(Cc1ccccc1)CC(O)c1ccc(F)cc1 (stereo not drawn) [DNDI0003389317]
SI (vs PMM) [2, 3]: 6

CCCOc1cc(C)c(C)cc1S(=O)(=O)NC1CCCC1 [DNDI0002550535]
SI (vs PMM) ([2]; PMM IC50 vs L. infantum IC50): 1

CCCc1c(C(=O)Nc2cccc(S(=O)(=O)NCc3ccco3)c2)[nH]c(C)c1C(C)=O [Compound Z966334826]
SI (vs PMM) ([2]; PMM IC50 vs L. infantum IC50): 2

COC(=O)c1cccc(C(=O)Nc2cccc(S(=O)(=O)N3CCCC3)c2)n1 [Compound Z441654950]
SI (vs PMM) ([2]; PMM IC50 vs L. infantum IC50): 1

COc1ccc(Cl)cc1S(=O)(=O)N(CC(=O)N1CCN(C)CC1)Cc1ccccc1 [DNDI0003363387]
SI (vs PMM) ([2]; PMM IC50 vs L. infantum IC50): 1

C[S+]([O-])c1c(Cl)ccc2c1S(=O)(=O)N(Cc1ccccc1)CCO2 (stereo not drawn) [DNDI0003578383]
SI (vs PMM) [2, 3]: 1

CCCCCOc1cc(C)c(Cl)cc1S(=O)(=O)NCc1ccco1 [DNDI0002567970]
SI (vs PMM) ([2]; PMM IC50 vs L. infantum IC50): 30

CCCOc1cc(C)c(C)cc1S(=O)(=O)NCC1CCCO1 (stereo not drawn) [DNDI0002622936]
SI (vs PMM) ([2]; PMM IC50 vs L. infantum IC50): 1

COc1ccc(C(=O)N2CCOCC2)cc1S(=O)(=O)N(Cc1ccc(F)cc1)Cc1ccc(F)cc1 [DNDI0003371178]
SI (vs PMM) [2, 3]: 63

CCCN(Cc1ccc(F)cc1)S(=O)(=O)c1cc([S+](C)[O-])ccc1OC (stereo not drawn) [DNDI0003578384]
SI (vs PMM) [2, 3]: 6

COc1ccc(C(=O)N2CCOCC2)cc1S(=O)(=O)N(Cc1ccc(F)cc1)Cc1ccc(C(F)(F)F)nc1 [DNDI0003389644]
SI (vs PMM) [2, 3]: 37

COc1ccc(Cl)cc1S(=O)(=O)N(CC(=O)N1CCCC1)Cc1ccccc1 [DNDI0003363389]
SI (vs PMM) ([2]; PMM IC50 vs L. infantum IC50): 2

COc1ccc(OC)c(S(=O)(=O)N2CCc3ccccc3C2)c1 [DNDI0003363398]
SI (vs PMM) ([2]; PMM IC50 vs L. infantum IC50): 1

COc1ccc(C#N)cc1S(=O)(=O)N(Cc1ccc(F)cc1)C1CCOCC1 [DNDI0003388084]
SI (vs PMM) [2, 3]: 1

COc1ccc(N2CCOCC2)cc1S(=O)(=O)N(Cc1ccc(F)cc1)Cc1ccc(F)cc1 [DNDI0003389118]
SI (vs PMM) [2, 3]: 200

O=C(NC(Cn1ccnc1)c1ccccc1)c1ccc(-n2cnnn2)cc1 (stereo not drawn) [DNDI0003363392]
SI (vs PMM) ([2]; PMM IC50 vs L. infantum IC50): 1
